# Measurements published in publication doi:10.1101/259481.
# The chains behind the UniProt entries cited, without tags or fusion partners. Where a name states a change or a piece, a line headed by the entry shows the natural chain unless it says otherwise. Residues count along the entry.
# laminin alpha 4 LG domain recombinant protein (Q16363, residues 826-1816): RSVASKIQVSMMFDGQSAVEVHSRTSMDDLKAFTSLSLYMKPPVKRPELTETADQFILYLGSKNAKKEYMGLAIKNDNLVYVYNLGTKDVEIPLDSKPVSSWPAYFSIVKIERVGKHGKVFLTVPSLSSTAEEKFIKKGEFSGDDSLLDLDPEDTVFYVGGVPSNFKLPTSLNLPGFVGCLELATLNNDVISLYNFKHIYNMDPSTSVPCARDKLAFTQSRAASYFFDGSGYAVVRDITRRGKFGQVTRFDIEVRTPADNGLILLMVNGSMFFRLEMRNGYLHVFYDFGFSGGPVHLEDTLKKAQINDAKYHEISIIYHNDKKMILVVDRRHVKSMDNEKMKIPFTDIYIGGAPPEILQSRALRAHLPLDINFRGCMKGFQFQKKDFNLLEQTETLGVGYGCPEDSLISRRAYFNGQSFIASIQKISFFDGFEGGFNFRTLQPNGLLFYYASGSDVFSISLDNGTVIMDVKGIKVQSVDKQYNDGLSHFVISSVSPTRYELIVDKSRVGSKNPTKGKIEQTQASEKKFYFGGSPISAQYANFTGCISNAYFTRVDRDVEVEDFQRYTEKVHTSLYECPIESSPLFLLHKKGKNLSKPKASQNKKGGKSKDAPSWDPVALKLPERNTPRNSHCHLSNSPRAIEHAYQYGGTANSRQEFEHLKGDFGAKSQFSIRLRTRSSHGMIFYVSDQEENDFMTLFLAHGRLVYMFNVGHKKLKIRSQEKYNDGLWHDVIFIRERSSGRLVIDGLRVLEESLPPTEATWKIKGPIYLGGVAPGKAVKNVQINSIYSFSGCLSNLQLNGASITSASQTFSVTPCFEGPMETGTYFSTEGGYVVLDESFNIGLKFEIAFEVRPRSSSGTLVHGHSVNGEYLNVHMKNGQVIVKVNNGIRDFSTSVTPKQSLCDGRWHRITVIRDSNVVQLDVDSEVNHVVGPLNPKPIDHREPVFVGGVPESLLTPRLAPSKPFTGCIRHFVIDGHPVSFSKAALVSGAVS
# laminin-derived peptide α4_(1408-1434) (Q16363, residues 1408-1434): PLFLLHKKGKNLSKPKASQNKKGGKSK
# laminin-derived peptide α4_(1521-1543) (Q16363, residues 1521-1543): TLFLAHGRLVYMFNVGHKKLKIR
# UniProt P24043: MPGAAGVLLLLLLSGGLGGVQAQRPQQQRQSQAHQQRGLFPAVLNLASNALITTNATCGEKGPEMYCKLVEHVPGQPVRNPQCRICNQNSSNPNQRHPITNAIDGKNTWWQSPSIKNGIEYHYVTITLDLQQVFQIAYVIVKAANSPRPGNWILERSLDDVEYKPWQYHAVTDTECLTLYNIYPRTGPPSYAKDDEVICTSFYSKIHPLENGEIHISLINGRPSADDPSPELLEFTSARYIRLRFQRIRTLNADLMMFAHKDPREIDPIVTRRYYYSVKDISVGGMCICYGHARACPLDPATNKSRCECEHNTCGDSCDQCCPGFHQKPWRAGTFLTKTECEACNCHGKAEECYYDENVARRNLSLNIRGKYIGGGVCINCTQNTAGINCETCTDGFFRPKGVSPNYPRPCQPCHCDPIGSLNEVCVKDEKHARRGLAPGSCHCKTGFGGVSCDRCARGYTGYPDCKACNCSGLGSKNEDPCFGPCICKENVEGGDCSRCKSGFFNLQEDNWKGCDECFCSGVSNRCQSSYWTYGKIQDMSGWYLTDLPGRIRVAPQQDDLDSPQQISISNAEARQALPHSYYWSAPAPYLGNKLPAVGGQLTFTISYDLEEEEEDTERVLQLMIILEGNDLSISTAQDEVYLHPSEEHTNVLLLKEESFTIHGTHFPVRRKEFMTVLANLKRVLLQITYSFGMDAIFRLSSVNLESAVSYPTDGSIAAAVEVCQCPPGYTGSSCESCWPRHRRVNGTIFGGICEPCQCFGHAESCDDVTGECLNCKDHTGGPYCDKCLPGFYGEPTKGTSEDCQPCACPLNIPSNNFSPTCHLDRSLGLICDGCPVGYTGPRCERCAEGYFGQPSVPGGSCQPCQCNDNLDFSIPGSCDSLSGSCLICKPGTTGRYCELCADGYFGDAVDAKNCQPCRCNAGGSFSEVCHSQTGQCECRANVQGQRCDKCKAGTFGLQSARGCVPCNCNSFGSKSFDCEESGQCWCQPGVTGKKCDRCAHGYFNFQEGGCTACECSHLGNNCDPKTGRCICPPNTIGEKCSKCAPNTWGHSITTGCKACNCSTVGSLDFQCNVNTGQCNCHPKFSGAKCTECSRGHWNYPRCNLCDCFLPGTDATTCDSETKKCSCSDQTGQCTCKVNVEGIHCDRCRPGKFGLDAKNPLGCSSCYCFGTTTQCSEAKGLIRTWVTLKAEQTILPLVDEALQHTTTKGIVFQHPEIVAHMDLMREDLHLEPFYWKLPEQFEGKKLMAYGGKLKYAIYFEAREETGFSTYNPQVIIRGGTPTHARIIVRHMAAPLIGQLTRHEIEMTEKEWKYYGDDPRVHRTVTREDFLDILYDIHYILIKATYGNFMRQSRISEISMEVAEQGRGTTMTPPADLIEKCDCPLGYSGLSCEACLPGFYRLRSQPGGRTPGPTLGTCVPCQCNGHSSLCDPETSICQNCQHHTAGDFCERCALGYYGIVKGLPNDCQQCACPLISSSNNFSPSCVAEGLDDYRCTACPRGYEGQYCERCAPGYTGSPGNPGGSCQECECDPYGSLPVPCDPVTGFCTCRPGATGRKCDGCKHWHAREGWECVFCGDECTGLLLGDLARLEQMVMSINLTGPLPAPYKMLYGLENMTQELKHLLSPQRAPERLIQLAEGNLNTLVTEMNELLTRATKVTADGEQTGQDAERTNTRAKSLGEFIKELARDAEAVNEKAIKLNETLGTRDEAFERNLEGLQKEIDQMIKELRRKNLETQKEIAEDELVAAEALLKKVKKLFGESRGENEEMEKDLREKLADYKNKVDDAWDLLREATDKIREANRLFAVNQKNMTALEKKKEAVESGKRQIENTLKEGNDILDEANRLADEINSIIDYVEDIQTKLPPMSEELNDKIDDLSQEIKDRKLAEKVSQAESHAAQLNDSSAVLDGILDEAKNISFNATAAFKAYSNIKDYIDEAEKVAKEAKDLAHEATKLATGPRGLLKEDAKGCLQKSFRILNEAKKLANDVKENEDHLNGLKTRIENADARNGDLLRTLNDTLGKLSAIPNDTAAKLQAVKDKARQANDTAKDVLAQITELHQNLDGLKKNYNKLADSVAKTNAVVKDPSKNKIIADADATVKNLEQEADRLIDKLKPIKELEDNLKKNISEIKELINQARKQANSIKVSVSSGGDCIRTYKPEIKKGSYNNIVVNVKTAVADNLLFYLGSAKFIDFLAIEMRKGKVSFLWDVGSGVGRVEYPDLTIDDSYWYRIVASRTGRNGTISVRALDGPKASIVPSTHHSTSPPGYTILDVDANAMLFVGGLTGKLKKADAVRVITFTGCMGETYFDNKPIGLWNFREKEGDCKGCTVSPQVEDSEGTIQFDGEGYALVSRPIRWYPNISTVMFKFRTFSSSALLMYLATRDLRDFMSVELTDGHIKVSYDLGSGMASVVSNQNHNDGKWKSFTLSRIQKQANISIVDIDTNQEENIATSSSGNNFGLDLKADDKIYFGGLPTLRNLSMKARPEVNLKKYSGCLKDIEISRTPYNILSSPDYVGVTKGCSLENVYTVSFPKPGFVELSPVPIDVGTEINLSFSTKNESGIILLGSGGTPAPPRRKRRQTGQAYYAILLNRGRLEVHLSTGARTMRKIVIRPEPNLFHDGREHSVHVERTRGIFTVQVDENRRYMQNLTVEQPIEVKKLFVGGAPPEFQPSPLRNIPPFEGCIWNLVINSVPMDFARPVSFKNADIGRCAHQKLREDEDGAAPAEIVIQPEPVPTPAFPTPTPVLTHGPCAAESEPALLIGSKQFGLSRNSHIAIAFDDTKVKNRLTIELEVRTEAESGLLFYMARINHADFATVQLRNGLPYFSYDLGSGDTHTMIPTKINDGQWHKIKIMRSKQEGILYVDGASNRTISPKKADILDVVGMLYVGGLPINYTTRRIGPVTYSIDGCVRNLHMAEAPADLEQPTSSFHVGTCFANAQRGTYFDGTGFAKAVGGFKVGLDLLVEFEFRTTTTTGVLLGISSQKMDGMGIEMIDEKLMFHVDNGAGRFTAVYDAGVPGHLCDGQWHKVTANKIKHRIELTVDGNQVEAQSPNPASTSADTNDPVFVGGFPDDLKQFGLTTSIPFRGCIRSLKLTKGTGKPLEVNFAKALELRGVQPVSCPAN
# No constants are given. Whether binding was seen depends on the method and setting. Some results given as binding are weak or reduced against the parent protein; the word gives no strength.
# T1: laminin-derived peptide α5_(3312-3325) (human) (UniProt O15230)
# T1 sequence (peptide): ARKASRRSRQPARH
# T2: laminin-derived peptide α3_(3031-3043) (human) (UniProt Q16787)
# T2 sequence (peptide): KNSFMALYLSKGR
# T3: laminin-derived peptide α5_(3539-3550) (human) (UniProt O15230)
# T3 sequence (peptide): TLPDVGLELEVR
# T4: laminin-derived peptide α3_(2932-2951) (human) (UniProt Q16787)
# T4 sequence (peptide): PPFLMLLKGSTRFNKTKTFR
# T5: laminin alpha 5 LG domain recombinant protein (human) (UniProt O15230)
# T5 sequence: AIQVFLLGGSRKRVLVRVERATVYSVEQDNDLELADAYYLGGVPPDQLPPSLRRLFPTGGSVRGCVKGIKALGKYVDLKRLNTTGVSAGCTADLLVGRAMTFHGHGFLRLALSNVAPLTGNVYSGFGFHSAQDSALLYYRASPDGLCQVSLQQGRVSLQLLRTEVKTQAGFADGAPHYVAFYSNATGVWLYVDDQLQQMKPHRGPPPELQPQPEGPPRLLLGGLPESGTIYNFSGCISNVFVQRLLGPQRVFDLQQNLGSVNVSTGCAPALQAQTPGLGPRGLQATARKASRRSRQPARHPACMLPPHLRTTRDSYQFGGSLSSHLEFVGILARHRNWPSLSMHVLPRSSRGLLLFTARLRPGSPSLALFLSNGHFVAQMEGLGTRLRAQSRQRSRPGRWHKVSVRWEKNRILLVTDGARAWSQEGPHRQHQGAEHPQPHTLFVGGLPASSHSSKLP
# T6: laminin-derived peptide α5_(3300-3330) (human) (UniProt O15230)
# T6 sequence (peptide): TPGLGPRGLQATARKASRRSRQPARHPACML
# T7: recombinant laminin α3_(2928-3150) protein (human) (UniProt Q16787)
# T7 sequence: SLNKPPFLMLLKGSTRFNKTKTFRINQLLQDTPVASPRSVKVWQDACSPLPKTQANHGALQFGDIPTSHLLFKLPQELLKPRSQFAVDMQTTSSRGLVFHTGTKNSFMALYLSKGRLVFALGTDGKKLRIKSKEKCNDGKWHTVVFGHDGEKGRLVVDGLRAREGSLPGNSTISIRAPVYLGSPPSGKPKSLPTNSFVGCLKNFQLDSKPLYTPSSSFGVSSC
# T8: laminin-derived peptide α5_(3417-3436) (human) (UniProt O15230)
# T8 sequence (peptide): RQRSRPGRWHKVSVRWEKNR
# T9: laminin-derived peptide α3_(3043-3067) (human) (UniProt Q16787)
# T9 sequence (peptide): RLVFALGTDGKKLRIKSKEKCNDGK
# Assays:
# Experiment in all cases: ELISA
# [1] = biological target: laminin-derived peptide α4_(1521-1543) (human) (UniProt Q16363)
# [2] = biological target: laminin-221 (UniProt P24043)
# [3] = biological target: T1, laminin-derived peptide α5_(3312-3325) (human)
# [4] = biological target: laminin alpha 4 LG domain recombinant protein (human) (UniProt Q16363)
# [5] = biological target: laminin-derived peptide α4_(1408-1434) (human) (UniProt Q16363)
# [6] = biological target: T2, laminin-derived peptide α3_(3031-3043) (human)
# [7] = biological target: T3, laminin-derived peptide α5_(3539-3550) (human)
# [8] = biological target: T4, laminin-derived peptide α3_(2932-2951) (human)
# [9] = biological target: T5, laminin alpha 5 LG domain recombinant protein (human)
# [10] = biological target: T6, laminin-derived peptide α5_(3300-3330) (human)
# [11] = biological target: T7, recombinant laminin α3_(2928-3150) protein (human)
# [12] = biological target: T8, laminin-derived peptide α5_(3417-3436) (human)
# [13] = biological target: T9, laminin-derived peptide α3_(3043-3067) (human)
binding [1],binding [2],binding [3],binding [4],binding [5],binding [6],binding [7],binding [8],binding [9],binding [10],binding [11],binding [12],binding [13],Binder
binds,binds,no binding (tested: 1 μg/mL),binds,binds,–,–,–,–,–,–,–,–,"placental growth factor (PlGF)-2 (ligand, UniProt P49763-3 19-170) LPAVPPQQWALSAGNGSSEVEVVPFQEVWGRSYCRALERLVDVVSEYPSEVEHMFSPSCVSLLRCTGCCGDENLHCVPVETANVTMQLLKIRSGDRPSYVELTFSQHVRCECRPLREKMKPERRRPKGRGKRRREKQRPTDCHLCGDAVPRR"
binds,–,binds weakly,–,binds,binds weakly,no binding (tested: 1 μg/mL),binds weakly,–,–,–,–,–,"recombinant human syndecan-4 (receptor, UniProt P31431 19-145) ESIRETEVIDPQDLLEGRYFSGALPDDEDVVGPGQESDDFELSGSGDLDDLEDSMIGPEVVHPLVPLDNHIPERAGSGSQVPTEPKKLEENEVIPKRISPVEESEDVSNKVSMSSTVQGSNIFERTE"
binds,–,binds weakly,–,binds,binds weakly,no binding (tested: 1 μg/mL),binds weakly,–,–,–,–,–,"recombinant human syndecan-1 (receptor, UniProt P18827 23-254) QIVATNLPPEDQDGSGDDSDNFSGSGAGALQDITLSQQTPSTWKDTQLLTAIPTSPEPTGLEATAASTSTLPAGEGPKEGEAVVLPEVEPGLTAREQEATPRPRETTQLPTTHLASTTTATTAQEPATSHPHRDMQPGHHETSTPAGPSQADLHTPHTEDGGPSATERAAEDGASSQLPAAEGSGEQDFTFETSGENTAVVAVEPDRRNQSPVDQGATGASQGLLDRKEVLG"
no binding (tested: 1 μg/mL),–,no binding (tested: 1 μg/mL),no binding (tested: 1 μg/mL),no binding (tested: 1 μg/mL),no binding (tested: 1 μg/mL),no binding (tested: 1 μg/mL),no binding (tested: 1 μg/mL),no binding (tested: 1 μg/mL),no binding (tested: 1 μg/mL),no binding (tested: 1 μg/mL),no binding (tested: 1 μg/mL),no binding (tested: 1 μg/mL),"placental growth factor (PlGF)-1 (ligand, UniProt P49763-2 19-149) LPAVPPQQWALSAGNGSSEVEVVPFQEVWGRSYCRALERLVDVVSEYPSEVEHMFSPSCVSLLRCTGCCGDENLHCVPVETANVTMQLLKIRSGDRPSYVELTFSQHVRCECRPLREKMKPERCGDAVPRR"
